Laboratory results: PubChem BioAssay AID1259278 (Sanger Institute, 2017)
Screen: 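Knock-downs synthetic lethal with BYL719, cetuximab or trametinib in colorectal cancer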 (follow-up of hits). Cell system: human HT55 colorectal cancer cells. Reagent: single siRNA against human genes. Conditions: anchor drugs added to knock-down cells: cetuximab 5 µg/ml, trametinib 10 nM or BYL719 1 µM, against DMSO vehicle; chosen to hurt viability little alone. Measured: 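Viability averaged against the control control pool 2 (non-targeting), plus a synergy score of knock-down with drug for each anchor drug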. Scale: synergy score with BYL719 and synergy score with cetuximab and synergy score with trametinib: higher = stronger combined killing with knock-down. Rule for the call: 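a knock-down is called active when its synergy score is above 0.10 for one or more anchor drugs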. Calls: active = synergy with an anchor drug; inactive = no synergy.
The whole screen tested 160 reagents; this is a random part of them. 54 of all reagents (34%) were called active. 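Each call rests on one siRNA duplex in one cell line; gene-level support needs several duplexes and lines.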 Entries without a mark were called inactive. The numbers tell different reagents against one gene apart. Further read-outs or replicates are left out here. Not given: the amount of reagent, the time to read-out.

{"gene knocked down": "GRK5", "reagent": 1, "synergy score with BYL719": -0.186, "synergy score with cetuximab": -0.187, "synergy score with trametinib": -0.106}
{"gene knocked down": "GRK5", "reagent": 2, "synergy score with BYL719": -0.271, "synergy score with cetuximab": 0.0243, "synergy score with trametinib": 0.00792}
{"gene knocked down": "GRK5", "reagent": 3, "synergy score with BYL719": -0.11, "synergy score with cetuximab": -0.0311, "synergy score with trametinib": -0.0512}
{"gene knocked down": "GRK5", "reagent": 4, "synergy score with BYL719": "-0.17 (active)", "synergy score with cetuximab": 0.128, "synergy score with trametinib": -0.00136}
{"gene knocked down": "RPS6KA4", "reagent": 1, "synergy score with BYL719": -0.257, "synergy score with cetuximab": -0.139, "synergy score with trametinib": -0.168}
{"gene knocked down": "RPS6KA4", "reagent": 2, "synergy score with BYL719": -0.156, "synergy score with cetuximab": -0.0281, "synergy score with trametinib": -0.105}
{"gene knocked down": "RPS6KA4", "reagent": 3, "synergy score with BYL719": -0.0225, "synergy score with cetuximab": -0.0706, "synergy score with trametinib": -0.00674}
{"gene knocked down": "RPS6KA4", "reagent": 4, "synergy score with BYL719": 0.0239, "synergy score with cetuximab": -0.0902, "synergy score with trametinib": 0.0724}
{"gene knocked down": "CAMK2N1", "reagent": 1, "synergy score with BYL719": -0.0699, "synergy score with cetuximab": -0.0543, "synergy score with trametinib": -0.196}
{"gene knocked down": "CAMK2N1", "reagent": 2, "synergy score with BYL719": -0.173, "synergy score with cetuximab": 0.0729, "synergy score with trametinib": 0.0105}
{"gene knocked down": "CAMK2N1", "reagent": 3, "synergy score with BYL719": -0.057, "synergy score with cetuximab": 0.00972, "synergy score with trametinib": -0.0416}
{"gene knocked down": "CAMK2N1", "reagent": 4, "synergy score with BYL719": -0.207, "synergy score with cetuximab": -0.0434, "synergy score with trametinib": -0.148}
{"gene knocked down": "PINK1", "reagent": 1, "synergy score with BYL719": -0.303, "synergy score with cetuximab": -0.195, "synergy score with trametinib": 0.04}
{"gene knocked down": "PINK1", "reagent": 2, "synergy score with BYL719": 0.0373, "synergy score with cetuximab": 0.0906, "synergy score with trametinib": 0.0288}
{"gene knocked down": "PINK1", "reagent": 3, "synergy score with BYL719": "0.0673 (active)", "synergy score with cetuximab": 0.057, "synergy score with trametinib": 0.114}
{"gene knocked down": "PINK1", "reagent": 4, "synergy score with BYL719": "0.0207 (active)", "synergy score with cetuximab": 0.191, "synergy score with trametinib": 0.104}
{"gene knocked down": "MPP3", "reagent": 1, "synergy score with BYL719": -0.118, "synergy score with cetuximab": 0.0479, "synergy score with trametinib": -0.143}
{"gene knocked down": "MPP3", "reagent": 2, "synergy score with BYL719": -0.11, "synergy score with cetuximab": -0.177, "synergy score with trametinib": 0.0666}
{"gene knocked down": "MPP3", "reagent": 3, "synergy score with BYL719": "-0.0215 (active)", "synergy score with cetuximab": -0.0813, "synergy score with trametinib": 0.144}
{"gene knocked down": "MPP3", "reagent": 4, "synergy score with BYL719": "-0.0268 (active)", "synergy score with cetuximab": 0.103, "synergy score with trametinib": 0.0547}
{"gene knocked down": "SYNCRIP", "reagent": 1, "synergy score with BYL719": "-0.138 (active)", "synergy score with cetuximab": 0.125, "synergy score with trametinib": 0.0685}
{"gene knocked down": "SYNCRIP", "reagent": 2, "synergy score with BYL719": -0.331, "synergy score with cetuximab": -0.0895, "synergy score with trametinib": -0.00842}
{"gene knocked down": "SYNCRIP", "reagent": 3, "synergy score with BYL719": -0.0127, "synergy score with cetuximab": -0.0123, "synergy score with trametinib": 0.0428}
{"gene knocked down": "SYNCRIP", "reagent": 4, "synergy score with BYL719": -0.196, "synergy score with cetuximab": 0.0933, "synergy score with trametinib": -0.0486}
